Source: PubChem BioAssay AID493014 (National Center for Advancing Translational Sciences (NCATS), 2011)
The list shows a part of the results. Further columns of the screen follow, without active or inactive calls. The list favours compounds with an active or inconclusive main result. Words in brackets tell the shape of the fitted curve; partial curves, single points and poor fits give uncertain potencies. Square brackets hold non-standard residues; d marks the D form. Peptide text beside a SMILES is read from it. * marks the point of attachment. ξ: configuration not given here. Cbz = O=C(OCc1ccccc1)*; ξP = O=C(O)C1CCCN1

Assay: qHTS Assay to Find Inhibitors of Chronic Active B-Cell Receptor Signaling
Conditions: ABC-DLBCL IkBa-CBG/CBR reporter, luminescence ratio (green luciferase fused to IkBa over red control in TMD8 lymphoma cells), 4 h
Outline: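 Doxycycline induced both beetle luciferases in TMD8 lymphoma cells; IKK-driven degradation limits the IkappaBalpha-fused green signal, while red luminescence normalises for cell number and nonspecific effects. Compounds tested up to 46 uM, 4 hrs.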

[1] = measured here: CBR red luminescence, cell number
[2] = measured here: IkBa-CBG green luminescence

Row | SMILES | AC50 [1] | AC50 [2]
1 | Brc1cc2c(cc1/C=N/Nc1nc3ccccc3s1)OCO2 | 0.2 µM [rising, full curve, poor fit] | –
2 | Cc1cccc(NC(=O)COC(=O)c2ccc(C)c(S(=O)(=O)N3CCCCC3)c2)c1 | 4.61 µM [falling, full curve] | –
3 | CN1C(=O)C(C)(C)c2cc(S(=O)(=O)N3CCCC(C(=O)NCc4ccc(Cl)cc4)C3)ccc21 (stereo not given) | 2.51 µM [falling, partial curve, poor fit] | –
4 | CCCCCCn1c(=O)[nH]c2nc3cc(N)c(C)cc3nc2c1=O | 25.9 µM [rising, partial curve] | –
5 | NNC(=O)CN1CCCc2ccccc21 | 14.1 µM [rising, single point] | –
6 | O=C(COc1ccc(Br)cc1Br)NNC(=O)c1cccs1 | 2 µM [rising, partial curve, poor fit] | –
7 | COc1ccc(C2OC(=O)CC2C(=O)NCc2ccc(Cl)cc2)cc1OC (stereo not given) | 12.6 µM [rising, single point] | –
8 | CC(Oc1ccccc1Cl)C(=O)N1CCOCC1 (stereo not given) | 29.1 µM [rising, single point] | –
9 | CC12CC(NC(=O)N1c1cccc(C(=O)N3CCN(c4ccccc4F)CC3)c1)c1ccccc1O2 (stereo not given) | 0.461 µM [falling, full curve] | –
10 | O=C(CCN1CCN(c2ccccc2)CC1)c1ccc(Br)cc1 | 35.5 µM [falling, single point] | 35.5 µM [rising, partial curve, poor fit]
11 | CC(C)(C)n1nnnc1SCC(=O)Nc1nn(-c2ccccc2)nc1C(N)=O | 0.501 µM [falling, full curve, poor fit] | –
12 | Cc1c(NC(=O)COC(=O)c2cccn2C)c(=O)n(-c2ccccc2)n1C | 29.1 µM [rising, single point] | –
13 | C=CCSc1nc(N)c(C#N)c(-c2ccccc2)c1C#N | 0.501 µM [rising, full curve] | –
14 | O=C(CCN1C(=O)C2C3CCC(C3)C2C1=O)Nc1ccc(Cl)cc1Cl (stereo not given) | 5.62 µM [falling, single point] | –
15 | CCOC(=O)c1csc(NC(=O)c2ccc(N3C(=O)CCC3=O)cc2)n1 | 5.62 µM [falling, full curve, poor fit] | –
16 | Cc1cc(C)n(S(=O)(=O)/C=C/c2ccccc2)n1 | 15.8 µM [falling, single point] | –
17 | CN(Cc1ccc(Br)cc1)CC(O)COc1cccc(Br)c1 (stereo not given) | 11.2 µM [falling, partial curve] | –
18 | Cc1cc(C)nc(NC(=S)Nc2cccc(F)c2)c1 | 0.1 µM [rising, full curve, poor fit] | –
19 | O=C(/C=C/c1ccc(Cl)cc1)NC(=S)Nc1ccc(N2CCOCC2)c(Cl)c1 | 14.6 µM [falling, partial curve, poor fit] | –
20 | COc1cccc(C(=O)NN2C(=S)N(c3ccccc3)C(=O)C2CC(N)=O)c1 (stereo not given) | 7.08 µM [falling, partial curve] | –
21 | CC(=O)Nc1ccc(Nc2cc(-c3ccccc3)nc3ncnn23)cc1 | 11.2 µM [falling, partial curve, poor fit] | –

Row | SMILES | AC50 [1] | AC50 [2]
22 | COc1ccc(C(=O)Nc2cccc(C(C)=O)c2)c(OC)c1OC | 14.6 µM [falling, single point] | –
23 | CCC1CCCCN1Cc1nc2c(c(=O)n(C)c(=O)n2C)n1CCC(C)C (stereo not given) | 0.146 µM [rising, full curve, poor fit] | –
24 | CCOC(=O)CSc1nnc2c(n1)C1(C)CCC2C1(C)C (stereo not given) | 3.55 µM [rising, single point] | –
25 | COc1ccc(C=NNc2ccc(S(=O)(=O)Nc3ccccc3C(=O)O)cc2[N+](=O)[O-])c(OC)c1 | 5.8 µM [rising, single point] | –
26 | COc1ccc(CNc2ccc([N+](=O)[O-])cn2)cc1 | 4.47 µM [rising, partial curve] | –
27 | Cn1c(C(=O)OCC(=O)NCc2ccc(F)cc2)cc2occc21 | 23.1 µM [rising, partial curve, poor fit] | –
28 | O=C(NNC(=O)c1ccccc1Cl)c1ccc2c(=O)n3c(nc2c1)CCC3 | 16.4 µM [falling, partial curve, poor fit] | –
29 | O=C(COC(=O)CSc1ccccc1)Nc1ccc(F)cc1F | 29.1 µM [rising, single point] | –
30 | COc1ccc(CCn2c(N)cc(=O)[nH]c2=S)cc1OC | 0.92 µM [rising, full curve, poor fit] | 23.1 µM [falling, partial curve]
31 | CCN(CC)S(=O)(=O)c1ccc(/C=C/C(=O)Nc2ccccc2N2CCOCC2)cc1 | 2 µM [rising, partial curve, poor fit] | –
32 | COc1cc(OC)cc(C(=O)NCc2n[nH]c(=S)n2-c2ccccc2OC)c1 | 0.366 µM [falling, full curve] | –
33 | O=C(CN1CCC(O)(c2ccc3c(c2)OCO3)CC1)OC1CCCCC1 | 1.03 µM [falling, full curve, poor fit] | –
34 | CCN(CC)c1ccc(Nc2cc3n(c(=O)n2)CCc2cc(OC)c(OC)cc2-3)cc1 | – | 7.08 µM [falling, partial curve]
35 | COC(=O)CNC(=O)C1CCCN1C(=O)CNC(=O)OCc1ccccc1 (stereo not drawn) (Cbz-Gly-[ξP]-Gly-OMe) | 3.55 µM [rising, partial curve, poor fit] | –
36 | Nc1c(N(CCO)C(=O)C2CCCCC2)c(=O)[nH]c(=O)n1Cc1ccccc1 | 3.55 µM [rising, partial curve, poor fit] | –
37 | O=C(Nc1nnc(-c2ccccn2)o1)c1ccc(Br)cc1 | 10.3 µM [falling, partial curve] | –
38 | CC(NC(=O)c1ccco1)C(=O)N1CCc2ccccc2C1 (stereo not given) | 16.4 µM [falling, single point] | –
39 | COc1ccc2c(=O)c3c(=O)n(Cc4ccco4)c(-c4cc(OC)c(OC)c(OC)c4)nc3oc2c1 | 6.51 µM [falling, partial curve] | –
40 | COc1cc(/C=C(/C#N)C(=O)NCc2ccccc2)cc(OC)c1OC | 5.62 µM [falling, single point] | –
41 | O=C(O)CN1C(=O)/C(=C\c2ccccc2OCc2ccc(Cl)cc2)SC1=S | 7.08 µM [rising, partial curve, poor fit] | –
42 | O=C(CCl)Nc1c(C(=O)Nc2ccc3c(c2)OCCO3)oc2ccccc12 | 12.6 µM [falling, partial curve] | –

Row | SMILES | AC50 [1] | AC50 [2]
43 | O=C(/C=C/c1ccccc1)NC(=S)NNC(=O)c1ccco1 | 16.4 µM [falling, single point] | –
44 | Cc1ccc(CNC(=O)c2cc3c(=O)n(C)c4ccccc4c3n2C)cc1 | 2.06 µM [falling, partial curve, poor fit] | –
45 | CCCCCCCNC(=O)C1(CC2CC(c3ccc(Cl)cc3)=NO2)CCN(C(=O)OC(C)(C)C)CC1 (stereo not given) | 2.51 µM [rising, single point] | –
46 | CC(C)c1ccc(NC(=O)CSC2=Nc3ccccc3C3=NC(CC(=O)NCc4ccc(F)cc4)C(=O)N23)cc1 (stereo not given) | 10 µM [falling, partial curve] | 12.6 µM [rising, partial curve, poor fit]
47 | Cc1cc(C(=O)NP(=O)(N2CCOCC2)N2CCOCC2)c(C)n1-c1ccc(Br)cc1 | 13 µM [falling, partial curve, poor fit] | –
48 | COc1ccc(C2=NN(C(=O)CSc3nnc(C)c(=O)n3N)C(c3ccco3)C2)cc1 (stereo not given) | 17.8 µM [rising, partial curve, poor fit] | –
49 | CN(C)S(=O)(=O)N1CCN(c2ccc(Cl)cc2)CC1 | 14.6 µM [rising, partial curve, poor fit] | –
50 | CC[n+]1c(/C=C/c2cc([N+](=O)[O-])ccc2O)ccc2ccccc21 | 11.2 µM [falling, partial curve, poor fit] | –
51 | CSc1ccccc1-c1nnc(-c2ccc(Cl)c(Cl)c2)o1 | 0.316 µM [rising, full curve, poor fit] | –
52 | O=C(N/N=C/c1ccc([N+](=O)[O-])cc1)c1ccc(NS(=O)(=O)c2cccs2)cc1 | 8.2 µM [falling, partial curve] | –
53 | O=C(COC(=O)CNC(=O)c1cccs1)Nc1ccc(C(F)(F)F)cc1[N+](=O)[O-] | 25.9 µM [rising, partial curve, poor fit] | –
54 | O=C(NCc1ccccc1Br)c1ccncc1 | 17.8 µM [falling, single point] | –
55 | Brc1ccc(N=Nc2ccc3ccccc3n2)cc1 | 2.51 µM [falling, full curve, poor fit] | –
56 | CC(C)N(Cc1ccccc1)C(=O)COC(=O)/C=C/c1cnc2ccccc2n1 | 1.26 µM [falling, full curve, poor fit] | –
57 | CC(C)OC(=O)CSc1nnnn1-c1ccc2c(c1)OCCO2 | 10.3 µM [rising, partial curve] | –
58 | Cc1ccc(C)c(NC(=O)c2ccccn2)c1 | 20.6 µM [rising, single point] | –
59 | Cc1ccc(CSCC(Nc2ccc(C(=O)O)cc2[N+](=O)[O-])C(=O)O)cc1 (stereo not given) | 23.1 µM [falling, single point] | –
60 | COc1cc(C(=O)N2CCN(Cc3ccccn3)CC2)cc(OC)c1OC | 0.891 µM [rising, full curve, poor fit] | –
61 | COc1cc(OC)c(OC)cc1CN(C)CCc1ccccn1 | 4.11 µM [falling, single point] | –
62 | Cc1ccc(SC[C@H](Cc2ccccc2)N2CCN(CC(C)C)CCC2=O)cc1 | 2.24 µM [rising, partial curve, poor fit] | –

Reprinted at random: two compounds from above
Row | SMILES | AC50 [1] | AC50 [2]
24 | CCOC(=O)CSc1nnc2c(n1)C1(C)CCC2C1(C)C (stereo not given) | 3.55 µM [rising, single point] | –
56 | CC(C)N(Cc1ccccc1)C(=O)COC(=O)/C=C/c1cnc2ccccc2n1 | 1.26 µM [falling, full curve, poor fit] | –
